The other results are listed elsewhere or left out.
What was measured:
Test in all cases: log2 fold change, soluble protein after heating vs DMSO (PISA); higher = thermal stabilisation; K562 cells, 10 uM, 30 min; active = over 0.2 and 3.5 SD of the protein, either way, in both replicates (recomputed)
saracatinib = compound: CN1CCN(CCOc2cc(OC3CCOCC3)c3c(Nc4c(Cl)ccc5c4OCO5)ncnc3c2)CC1 [saracatinib]
How it was run: (§1)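 K562 cells at 2×10^6 cells/mL were treated with 10 μM compound for 30 min. Aliquots were heated for 3 min across 48°C-58°C, pooled, and extracted in PBS with 0.5% NP-40 at 4°C; soluble protein was the supernatant after 21,000xg for 90 min. Soluble protein was quantified by TMTpro 16plex LC-MS/MS with channel sums equalised, and reported as log2 fold change in thermal stability against DMSO controls, with values from duplicates.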

Protein sequences, listed by entry. Tags and fused reporters are not part of them. Lines headed by an entry give the natural chain unless they say otherwise; changes in a name come on top.
UniProt P05165: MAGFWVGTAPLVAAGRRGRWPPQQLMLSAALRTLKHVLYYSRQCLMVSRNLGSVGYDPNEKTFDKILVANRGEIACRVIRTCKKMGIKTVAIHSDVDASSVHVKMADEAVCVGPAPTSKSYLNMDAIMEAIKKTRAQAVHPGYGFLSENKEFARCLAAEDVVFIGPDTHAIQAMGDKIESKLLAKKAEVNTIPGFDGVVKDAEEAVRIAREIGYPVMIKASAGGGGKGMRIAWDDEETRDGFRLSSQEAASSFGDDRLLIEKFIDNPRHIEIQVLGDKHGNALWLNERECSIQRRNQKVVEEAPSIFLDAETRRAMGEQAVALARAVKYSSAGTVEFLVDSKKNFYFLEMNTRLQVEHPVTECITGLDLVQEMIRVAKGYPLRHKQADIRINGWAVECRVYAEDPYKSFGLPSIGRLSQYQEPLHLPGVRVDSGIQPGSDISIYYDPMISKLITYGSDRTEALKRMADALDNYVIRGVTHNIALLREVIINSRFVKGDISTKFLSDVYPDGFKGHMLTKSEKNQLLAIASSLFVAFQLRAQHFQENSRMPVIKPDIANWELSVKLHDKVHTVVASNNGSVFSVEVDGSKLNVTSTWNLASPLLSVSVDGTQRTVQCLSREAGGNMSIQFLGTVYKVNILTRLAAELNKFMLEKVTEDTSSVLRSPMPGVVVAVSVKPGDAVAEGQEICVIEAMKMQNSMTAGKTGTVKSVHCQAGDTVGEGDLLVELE
UniProt Q15084: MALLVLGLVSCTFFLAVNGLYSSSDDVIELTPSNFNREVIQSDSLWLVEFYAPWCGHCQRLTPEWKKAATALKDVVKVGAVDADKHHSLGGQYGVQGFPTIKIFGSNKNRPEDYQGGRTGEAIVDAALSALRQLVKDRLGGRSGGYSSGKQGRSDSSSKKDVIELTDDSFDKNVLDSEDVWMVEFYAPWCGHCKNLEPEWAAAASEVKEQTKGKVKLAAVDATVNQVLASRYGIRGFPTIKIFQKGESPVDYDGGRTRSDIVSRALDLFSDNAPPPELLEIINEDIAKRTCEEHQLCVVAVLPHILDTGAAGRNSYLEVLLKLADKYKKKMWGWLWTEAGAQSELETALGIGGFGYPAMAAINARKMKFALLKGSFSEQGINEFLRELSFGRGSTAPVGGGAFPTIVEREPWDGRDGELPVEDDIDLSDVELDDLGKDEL
UniProt Q9HBH1: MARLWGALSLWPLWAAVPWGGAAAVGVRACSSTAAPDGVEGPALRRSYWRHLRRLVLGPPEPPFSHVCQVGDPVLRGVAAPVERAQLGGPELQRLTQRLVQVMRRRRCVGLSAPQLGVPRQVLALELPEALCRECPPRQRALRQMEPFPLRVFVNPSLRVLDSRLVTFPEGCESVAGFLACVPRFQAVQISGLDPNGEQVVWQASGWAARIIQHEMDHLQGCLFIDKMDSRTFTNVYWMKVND
UniProt P30039: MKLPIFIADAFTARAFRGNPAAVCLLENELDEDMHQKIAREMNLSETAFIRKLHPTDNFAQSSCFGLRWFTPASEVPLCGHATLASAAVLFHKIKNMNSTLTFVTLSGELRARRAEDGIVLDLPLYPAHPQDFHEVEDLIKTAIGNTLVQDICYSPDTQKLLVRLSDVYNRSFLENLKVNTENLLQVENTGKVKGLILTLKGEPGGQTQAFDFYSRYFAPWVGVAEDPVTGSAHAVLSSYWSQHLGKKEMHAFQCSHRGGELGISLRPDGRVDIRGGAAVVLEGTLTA
UniProt P30086: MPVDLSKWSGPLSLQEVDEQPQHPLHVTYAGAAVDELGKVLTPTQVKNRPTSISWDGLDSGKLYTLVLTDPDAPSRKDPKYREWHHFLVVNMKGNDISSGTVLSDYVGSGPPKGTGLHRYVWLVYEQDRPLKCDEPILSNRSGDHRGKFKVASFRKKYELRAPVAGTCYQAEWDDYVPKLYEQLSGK
UniProt O43252: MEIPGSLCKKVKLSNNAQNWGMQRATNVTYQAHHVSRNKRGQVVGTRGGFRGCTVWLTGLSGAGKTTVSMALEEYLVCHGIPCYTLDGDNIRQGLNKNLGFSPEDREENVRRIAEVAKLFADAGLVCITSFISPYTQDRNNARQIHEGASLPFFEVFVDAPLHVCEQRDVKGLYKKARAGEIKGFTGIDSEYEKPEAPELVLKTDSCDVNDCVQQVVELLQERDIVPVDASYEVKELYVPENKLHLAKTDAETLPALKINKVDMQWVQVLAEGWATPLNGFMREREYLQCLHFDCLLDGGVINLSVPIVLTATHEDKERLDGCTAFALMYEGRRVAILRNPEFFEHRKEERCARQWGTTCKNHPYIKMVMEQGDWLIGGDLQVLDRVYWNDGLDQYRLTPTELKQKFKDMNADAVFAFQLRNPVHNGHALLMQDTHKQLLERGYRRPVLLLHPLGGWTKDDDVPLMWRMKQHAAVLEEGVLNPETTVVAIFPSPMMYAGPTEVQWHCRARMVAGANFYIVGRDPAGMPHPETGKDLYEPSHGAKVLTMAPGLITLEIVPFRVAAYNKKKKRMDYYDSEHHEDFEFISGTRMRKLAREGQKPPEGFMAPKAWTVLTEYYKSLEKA
UniProt Q5T2R2: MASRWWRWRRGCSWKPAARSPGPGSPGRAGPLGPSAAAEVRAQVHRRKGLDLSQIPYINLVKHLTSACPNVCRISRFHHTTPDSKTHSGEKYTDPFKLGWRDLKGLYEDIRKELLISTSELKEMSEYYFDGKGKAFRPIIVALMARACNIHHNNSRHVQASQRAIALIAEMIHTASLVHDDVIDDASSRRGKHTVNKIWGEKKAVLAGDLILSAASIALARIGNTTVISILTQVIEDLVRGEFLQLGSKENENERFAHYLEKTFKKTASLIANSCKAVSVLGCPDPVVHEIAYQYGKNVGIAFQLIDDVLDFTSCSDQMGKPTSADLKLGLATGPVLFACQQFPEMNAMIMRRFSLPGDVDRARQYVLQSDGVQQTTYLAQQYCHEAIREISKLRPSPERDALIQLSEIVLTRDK
UniProt P12955: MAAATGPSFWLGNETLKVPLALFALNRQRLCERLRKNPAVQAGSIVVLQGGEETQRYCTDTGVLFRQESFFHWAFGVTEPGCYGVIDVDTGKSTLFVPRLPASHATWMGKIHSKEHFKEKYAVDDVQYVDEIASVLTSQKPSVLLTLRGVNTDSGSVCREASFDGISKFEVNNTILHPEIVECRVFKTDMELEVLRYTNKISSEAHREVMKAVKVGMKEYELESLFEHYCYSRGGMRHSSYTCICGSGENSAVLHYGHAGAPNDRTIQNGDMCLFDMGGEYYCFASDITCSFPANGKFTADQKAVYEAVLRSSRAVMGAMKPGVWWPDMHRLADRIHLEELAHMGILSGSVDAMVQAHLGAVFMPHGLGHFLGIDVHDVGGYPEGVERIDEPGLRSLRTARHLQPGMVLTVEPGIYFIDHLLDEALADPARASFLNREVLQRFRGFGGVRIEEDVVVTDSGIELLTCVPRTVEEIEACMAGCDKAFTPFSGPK
UniProt Q9BUH6, whole entry, looked up: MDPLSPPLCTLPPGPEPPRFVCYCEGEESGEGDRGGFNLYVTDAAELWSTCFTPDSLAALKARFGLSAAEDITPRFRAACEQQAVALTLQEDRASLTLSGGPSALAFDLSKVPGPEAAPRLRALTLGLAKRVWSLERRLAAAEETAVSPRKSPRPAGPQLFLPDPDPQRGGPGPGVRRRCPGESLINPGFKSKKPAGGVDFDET
UniProt O14737: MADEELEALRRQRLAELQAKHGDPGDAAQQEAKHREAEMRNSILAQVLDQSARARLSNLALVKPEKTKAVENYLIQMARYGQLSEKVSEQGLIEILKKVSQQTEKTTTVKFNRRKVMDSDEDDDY
UniProt Q9BPZ3: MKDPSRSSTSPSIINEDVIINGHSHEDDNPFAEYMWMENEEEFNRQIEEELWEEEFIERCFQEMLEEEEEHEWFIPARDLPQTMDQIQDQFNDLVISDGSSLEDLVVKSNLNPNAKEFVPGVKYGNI
UniProt O00764: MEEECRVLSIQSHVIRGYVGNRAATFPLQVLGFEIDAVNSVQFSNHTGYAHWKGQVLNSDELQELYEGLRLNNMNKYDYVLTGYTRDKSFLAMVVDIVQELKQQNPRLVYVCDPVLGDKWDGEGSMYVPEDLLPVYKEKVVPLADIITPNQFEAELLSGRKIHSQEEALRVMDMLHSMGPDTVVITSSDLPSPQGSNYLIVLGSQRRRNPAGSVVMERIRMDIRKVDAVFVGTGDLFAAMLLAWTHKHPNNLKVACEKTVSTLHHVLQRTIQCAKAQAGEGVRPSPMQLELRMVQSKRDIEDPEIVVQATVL
UniProt Q9HBI1: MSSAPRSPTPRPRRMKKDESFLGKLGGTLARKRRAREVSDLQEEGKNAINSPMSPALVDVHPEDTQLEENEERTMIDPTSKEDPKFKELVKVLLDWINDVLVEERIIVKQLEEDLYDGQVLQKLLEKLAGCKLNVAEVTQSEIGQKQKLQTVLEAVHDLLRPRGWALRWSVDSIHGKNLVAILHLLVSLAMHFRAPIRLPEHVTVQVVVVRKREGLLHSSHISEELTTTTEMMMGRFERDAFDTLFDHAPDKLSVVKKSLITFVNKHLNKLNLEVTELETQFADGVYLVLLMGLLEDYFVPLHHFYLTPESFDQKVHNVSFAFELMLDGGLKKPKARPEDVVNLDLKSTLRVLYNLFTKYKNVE
UniProt Q9H074: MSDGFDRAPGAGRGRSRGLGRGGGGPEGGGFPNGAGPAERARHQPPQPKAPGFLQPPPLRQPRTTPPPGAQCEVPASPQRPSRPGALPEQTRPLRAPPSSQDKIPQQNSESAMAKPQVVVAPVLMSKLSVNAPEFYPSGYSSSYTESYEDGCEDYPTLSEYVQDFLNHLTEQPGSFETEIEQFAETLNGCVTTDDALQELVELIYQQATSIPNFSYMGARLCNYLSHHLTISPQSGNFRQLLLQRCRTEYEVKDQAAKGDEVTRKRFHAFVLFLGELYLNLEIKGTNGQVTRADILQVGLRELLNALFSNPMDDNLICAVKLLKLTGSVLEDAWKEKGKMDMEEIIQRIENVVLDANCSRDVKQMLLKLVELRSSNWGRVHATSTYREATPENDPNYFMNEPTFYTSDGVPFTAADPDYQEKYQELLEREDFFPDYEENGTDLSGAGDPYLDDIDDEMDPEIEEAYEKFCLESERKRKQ
UniProt P50479: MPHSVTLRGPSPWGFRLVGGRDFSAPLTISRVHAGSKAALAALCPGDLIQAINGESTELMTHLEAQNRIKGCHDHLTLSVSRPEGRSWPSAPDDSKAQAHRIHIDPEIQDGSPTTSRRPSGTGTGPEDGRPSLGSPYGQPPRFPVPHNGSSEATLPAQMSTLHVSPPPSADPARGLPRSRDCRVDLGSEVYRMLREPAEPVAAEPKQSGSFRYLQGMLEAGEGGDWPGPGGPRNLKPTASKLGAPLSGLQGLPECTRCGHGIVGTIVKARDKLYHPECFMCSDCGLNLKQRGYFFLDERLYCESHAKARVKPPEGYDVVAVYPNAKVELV

sotrastaurin = compound: CN1CCN(c2nc(C3=C(c4c[nH]c5ccccc45)C(=O)NC3=O)c3ccccc3n2)CC1 [sotrastaurin]
How it was run: as §1

alvocidib = compound: CN1CC[C@H](c2c(O)cc(O)c3c(=O)cc(-c4ccccc4Cl)oc23)[C@H](O)C1 [alvocidib]
How it was run: as §1

Tubastatin A = compound: CN1CCc2c(c3ccccc3n2Cc2ccc(C(=O)NO)cc2)C1 [Tubastatin A]
How it was run: as §1

[1] = compound: CNC(=O)C1=CC=CC=C1NC2=NC(=NC=C2Cl)NC3=C(C=C(C=C3)N4CCOCC4)OC
How it was run: as §1

defactinib = compound: CNC(=O)c1ccc(Nc2ncc(C(F)(F)F)c(NCc3nccnc3N(C)S(C)(=O)=O)n2)cc1 [defactinib]
How it was run: as §1

rucaparib = compound: CNCc1ccc(-c2[nH]c3cc(F)cc4c3c2CCNC4=O)cc1 [rucaparib]
How it was run: as §1

[2] = compound: CNc1nc(-c2ccc3c(N)n[nH]c3c2)cc(N2C[C@@H](C(=O)NC3CCCCC3)CC[C@H]2C)n1
How it was run: as §1

encorafenib = compound: COC(=O)N[C@@H](C)CNc1nccc(-c2cn(C(C)C)nc2-c2cc(Cl)cc(NS(C)(=O)=O)c2F)n1 [encorafenib]
How it was run: as §1

[3] = compound: COC(=O)[C@H](CCSC)NC(=O)C1=C(C=C(C=C1)NC[C@H](CS)N)C2=CC=CC=C2
How it was run: as §1

[4] = compound: COC1=CC=C(C=C1)CN2C=CC3=C2C=C(C=C3)C(=O)NO
How it was run: as §1

filanesib = compound: CON(C)C(=O)N1N=C(c2cc(F)ccc2F)S[C@@]1(CCCN)c1ccccc1 [filanesib]
How it was run: as §1

zotarolimus = compound: CO[C@H]1C[C@@H]2CC[C@@H](C)[C@@](O)(O2)C(=O)C(=O)N2CCCC[C@H]2C(=O)O[C@H]([C@H](C)C[C@@H]2CC[C@H](n3cnnn3)[C@H](OC)C2)CC(=O)[C@H](C)/C=C(\C)[C@@H](O)[C@@H](OC)C(=O)[C@H](C)C[C@H](C)/C=C/C=C/C=C/1C [zotarolimus]
How it was run: as §1

idasanutlin = compound: COc1cc(C(=O)O)ccc1NC(=O)[C@@H]1N[C@@H](CC(C)(C)C)[C@](C#N)(c2ccc(Cl)cc2F)[C@H]1c1cccc(Cl)c1F [idasanutlin]
How it was run: as §1

alisertib = compound: COc1cc(Nc2ncc3c(n2)-c2ccc(Cl)cc2C(c2c(F)cccc2OC)=NC3)ccc1C(=O)O [alisertib]
How it was run: as §1

[5] = compound: COc1cc2nc(-c3cc(F)ccc3O)nc(N[C@@H]3CNC[C@H]3C(C)(C)O)c2cc1OC
How it was run: as §1

gefitinib = compound: COc1cc2ncnc(Nc3ccc(F)c(Cl)c3)c2cc1OCCCN1CCOCC1 [gefitinib]
How it was run: as §1

[6] = compound: COc1cccc2cc(-c3nc([C@H]4CC[C@H](C(=O)O)CC4)n4ncnc(N)c34)[nH]c12
How it was run: as §1

lapatinib = compound: CS(=O)(=O)CCNCc1ccc(-c2ccc3ncnc(Nc4ccc(OCc5cccc(F)c5)c(Cl)c4)c3c2)o1 [lapatinib]
How it was run: as §1

pictilisib = compound: CS(=O)(=O)N1CCN(Cc2cc3nc(-c4cccc5[nH]ncc45)nc(N4CCOCC4)c3s2)CC1 [pictilisib]
How it was run: as §1

Measured: log2 fold change

PCCA (UniProt P05165)
inactive: saracatinib -0.01 | sotrastaurin 0.017 | alvocidib -0.02 | Tubastatin A -0.016 | [1] -0.006 | defactinib -0.043 | rucaparib -0.036 | [2] -0.028 | encorafenib 0.019 | [3] -0.008 | [4] -0.051 | filanesib -0.108 | zotarolimus -0.049 | idasanutlin -0.025 | alisertib -0.02 | [5] -0.027 | gefitinib 0.009 | [6] 0.032 | lapatinib 0.083 | pictilisib 0.054

PDIA6 isoform 2 (UniProt Q15084)
inactive: saracatinib 0.001 | sotrastaurin 0.005 | alvocidib 0.043 | Tubastatin A -0.04 | [1] 0.018 | defactinib 0.013 | rucaparib -0.025 | [2] -0.031 | encorafenib -0.009 | [3] 0.056 | [4] 0.001 | filanesib 0.012 | zotarolimus -0.044 | idasanutlin 0.021 | alisertib -0.058 | [5] 0.023 | gefitinib 0.047 | [6] -0.001 | lapatinib -0.042 | pictilisib -0.066

PDF (UniProt Q9HBH1)
inactive: saracatinib 0.053 | sotrastaurin 0.076 | alvocidib 0 | Tubastatin A -0.046 | [1] 0.011 | defactinib -0.04 | rucaparib 0.015 | [2] -0.098 | encorafenib -0.005 | [3] 0.044 | [4] 0.181 | filanesib -0.014 | zotarolimus -0.074 | idasanutlin -0.006 | alisertib -0.051 | [5] -0.105 | gefitinib 0.04 | [6] 0.034 | lapatinib 0.008 | pictilisib 0.018

PBLD (UniProt P30039)
inactive: saracatinib 0.02 | sotrastaurin -0.014 | alvocidib 0.012 | Tubastatin A 0.066 | [1] 0.002 | defactinib -0.005 | rucaparib -0.013 | [2] 0 | encorafenib -0.032 | [3] -0.003 | [4] -0.132 | filanesib -0.055 | zotarolimus -0.078 | idasanutlin -0.089 | alisertib 0.025 | [5] 0.035 | gefitinib 0.012 | [6] 0.028 | lapatinib -0.03

PEBP1 (UniProt P30086)
inactive: saracatinib 0.052 | sotrastaurin 0.016 | alvocidib -0.014 | Tubastatin A -0.022 | [1] -0.019 | defactinib 0.015 | rucaparib -0.046 | [2] 0.008 | encorafenib -0.036 | [3] 0.055 | [4] -0.027 | filanesib 0.025 | zotarolimus -0.032 | idasanutlin 0.023 | alisertib -0.058 | [5] -0.021 | gefitinib -0.003 | [6] 0.015 | lapatinib 0.008 | pictilisib -0.056

PAPSS1 (UniProt O43252)
inactive: saracatinib 0.083 | sotrastaurin 0.059 | alvocidib -0.099 | Tubastatin A -0.033 | [1] -0.018 | defactinib -0.005 | rucaparib 0.009 | [2] 0.03 | encorafenib -0.004 | [3] 0.022 | [4] -0.041 | filanesib -0.031 | zotarolimus 0.041 | idasanutlin -0.079 | alisertib -0.03 | [5] 0.005 | gefitinib -0.016 | [6] 0.042 | lapatinib -0.024 | pictilisib 0.062

PDSS1 (UniProt Q5T2R2)
inactive: saracatinib 0.028 | sotrastaurin 0.223 | alvocidib -0.057 | Tubastatin A -0.116 | [1] -0.044 | defactinib -0.055 | rucaparib -0.051 | [2] 0.029 | encorafenib -0.025 | [3] -0.06 | [4] -0.043 | filanesib 0.039 | zotarolimus 0.153 | idasanutlin 0.093 | alisertib 0.026 | [5] -0.056 | gefitinib 0.035 | [6] 0.025 | lapatinib -0.006 | pictilisib 0.139

PEPD (UniProt P12955)
inactive: saracatinib 0.036 | sotrastaurin 0.03 | alvocidib -0.038 | Tubastatin A -0.008 | [1] -0.006 | defactinib -0.012 | rucaparib -0.002 | [2] -0.073 | encorafenib -0.015 | [3] 0.028 | [4] 0.063 | filanesib -0.005 | zotarolimus -0.028 | idasanutlin -0.014 | alisertib 0.019 | [5] -0.019 | gefitinib -0.019 | [6] 0.034 | lapatinib 0.022 | pictilisib 0.106

PAXX (UniProt Q9BUH6)
inactive: saracatinib 0.028 | sotrastaurin 0.059 | alvocidib 0.037 | Tubastatin A -0.027 | [1] -0.131 | defactinib -0.026 | rucaparib 0.004 | [2] -0.026 | encorafenib -0.031 | [3] 0.008 | [4] 0.034 | filanesib -0.009 | zotarolimus -0.003 | idasanutlin 0.026 | alisertib 0.012 | [5] 0.028 | gefitinib -0.006 | [6] 0.062 | lapatinib -0.013 | pictilisib 0.025

PDCD5 (UniProt O14737)
inactive: saracatinib 0.009 | sotrastaurin -0.085 | alvocidib 0.025 | Tubastatin A 0.003 | [1] -0.038 | defactinib 0.007 | rucaparib -0.054 | [2] -0.023 | encorafenib 0.067 | [3] 0.009 | [4] 0.054 | filanesib -0.122 | zotarolimus -0.003 | idasanutlin -0.01 | alisertib -0.033 | [5] 0.018 | gefitinib 0.004 | [6] 0.056 | lapatinib -0.054 | pictilisib 0.009

PAIP2 (UniProt Q9BPZ3)
inactive: saracatinib -0.139 | sotrastaurin -0.002 | alvocidib -0.08 | Tubastatin A 0.081 | [1] 0.062 | defactinib 0.134 | rucaparib 0.079 | [2] -0.095 | encorafenib 0.008 | [3] 0.094 | [4] -0.117 | filanesib 0.172 | zotarolimus -0.002 | idasanutlin -0.003 | alisertib 0.008 | [5] 0.042 | gefitinib -0.063 | [6] -0.13 | lapatinib -0.012 | pictilisib -0.152

PDXK (UniProt O00764)
inactive: saracatinib 0 | sotrastaurin 0.006 | alvocidib 0.027 | Tubastatin A 0.028 | [1] -0.013 | defactinib -0.007 | rucaparib -0.043 | [2] -0.019 | encorafenib 0.052 | [3] 0.048 | [4] 0.1 | filanesib 0.003 | zotarolimus -0.072 | idasanutlin 0.014 | alisertib -0.114 | [5] -0.01 | gefitinib 0.012 | [6] 0.044 | lapatinib -0.009 | pictilisib -0.061

PARVB (UniProt Q9HBI1)
inactive: saracatinib -0.023 | sotrastaurin -0.027 | alvocidib -0.127 | Tubastatin A 0.046 | [1] -0.072 | defactinib -0.053 | rucaparib -0.032 | [2] 0.084 | encorafenib 0.031 | [3] 0 | [4] -0.074 | filanesib -0.06 | zotarolimus 0.035 | idasanutlin 0 | alisertib 0.255 | [5] -0.035 | gefitinib -0.053 | [6] 0.015 | lapatinib 0.022 | pictilisib 0

PAIP1 (UniProt Q9H074)
inactive: saracatinib 0.039 | sotrastaurin -0.006 | alvocidib -0.04 | Tubastatin A 0.003 | [1] 0.021 | defactinib -0.027 | rucaparib -0.01 | [2] -0.017 | encorafenib -0.044 | [3] 0.022 | [4] 0.001 | filanesib -0.03 | zotarolimus 0.009 | idasanutlin -0.031 | alisertib -0.051 | [5] -0.023 | gefitinib -0.019 | [6] -0.009 | lapatinib 0.029 | pictilisib 0.016

PDLIM4 (UniProt P50479)
inactive: saracatinib 0.006 | sotrastaurin 0.011 | alvocidib 0.039 | Tubastatin A 0.03 | [1] -0.019 | defactinib -0.025 | rucaparib -0.028 | [2] -0.041 | encorafenib -0.007 | [3] 0.025 | [4] -0.01 | filanesib 0.014 | zotarolimus -0.022 | idasanutlin -0.01 | alisertib -0.086 | [5] 0.038 | gefitinib -0.002 | [6] 0.01 | lapatinib 0.018 | pictilisib 0.007

Source: the supplement of paper PMC10849652
